In publication PMC10688271, “Molecular details of the CPSF73-CPSF100 C-terminal heterodimer and interaction with Symplekin”:

Target: T1, ec73-CTD3 (Encephalitozoon cuniculi) (UniProt Q8SUE4)
T1 sequence (looked up): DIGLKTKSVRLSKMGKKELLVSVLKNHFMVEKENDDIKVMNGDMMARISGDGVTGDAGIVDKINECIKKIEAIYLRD
Assay: EMSA
Conditions: 50 uM protein, 500 nM nucleic acid, EMSA: 20 mM Tris pH 7.5, 150 mM potassium acetate, 1 mM EDTA, 10% glycerol, 30 min incubation, 10% Tris-glycine gel, recombinant protein, residues 567-643, protein details: His6 tag removed by TEV

[1] = label: 3' Cy3 on forward strand

Row | Sequence | binding result [1] | also measured
1 | AGGGTCTCCATTTTGAAGCATGC (double strand) [dsDNA-Cy3] | no binding | 
2 | AGGGUCUCCAUUUUGAAGCAUGC [ssRNA-Cy3] |  | binding result (label: 3' Cy3): no binding
3 | AGGGUCUCCAUUUUGAAGCAUGC / GCAUGCUUCAAAAUGGAGACCCU [dsRNA-Cy3] | no binding | 
4 | AGGGTCTCCATTTTGAAGCATGC [ssDNA-Cy3] |  | binding result (label: 3' Cy3, single-stranded DNA): no binding

Negatives hold for the conditions tested. At least one verdict rests on a figure or table, not on a statement of the authors. Tags and fusion partners may be left off the protein sequences shown.
